Measured values reported in PubChem BioAssay AID540256 (National Center for Advancing Translational Sciences (NCATS), 2011).
Among all 300,000 compounds or so, about 3,700 (1.2%) were called active. The inconclusive results got no clear call from the source; some entries with a clear call stand among them for comparison. The call rests on the fitted dose curve; tested in HEK293 cells. Potencies of inconclusive entries are doubtful fits and often do not repeat.
Potency means the concentration at half of the fitted maximal effect.

Experiment: qHTS for Inhibitors of binding or entry into cells for Lassa Virus; further: nearly all actives have a fitted effect of over 50% in size
Conditions: Lassa virus pseudotype entry inhibition, cell reporter; series mostly up to 37.9 µM
For `CC(Sc1nccn1C)C(=O)Nc1ccc(C(N)=O)cc1` (stereo not drawn), the Potency was inconclusive: 1.26 µM [activator, single point].
For `Cc1cccc2sc(NC(=O)c3ccc(OCC4CCCO4)cc3)nc12` (stereo not drawn), the Potency was “inactive”.
With `CC1=C(C(=O)Nc2ccc(C)cc2Cl)C2(CCCCCC2)OC1=O` the Potency was inconclusive: 31.6 µM [inhibitor, single point].
In the case of `CCOc1ccc(CCNC(=O)c2ccc(-n3c(C)cc4c3CCC(C)C4)cc2)cc1OCC` (stereo not drawn), the Potency is reported as inconclusive: 25.1 µM [inhibitor, single point].
For `CN=C(C)c1c(O)c2ccccc2oc1=O`, the Potency was inconclusive: 7.3 µM [activator, partial curve, poor fit].
With `O=C(CCN1C(=O)/C(=C\c2ccccc2Cl)SC1=S)Nc1cccnc1` the Potency was “inactive”.
In the case of `COc1cc(C(=O)Nc2ccc(C(C)=O)cc2)c(Br)c(OC)c1OC`, the Potency is reported as inconclusive: 5.01 µM [activator, single point].
For `Cc1ccc(S(=O)(=O)N2CCCC2CNC(=O)C(=O)NC2CCCC2)cc1` (stereo not drawn), the Potency was inconclusive: 10 µM [inhibitor, partial curve, poor fit].
With `COc1ccc(-c2noc(Cc3cccs3)n2)cc1` the Potency was “inactive”.
In the case of `Cc1ccc(C(=O)NNc2ncnc3c2cnn3C)cc1`, the Potency is reported as “inactive”.
For `Cc1ccc(C)c2sc(N3CCN(C(=O)C(C)(C)C)CC3)nc12`, the Potency was “inactive”.
In the case of `COc1ccc(C(=O)NCCS(=O)(=O)NCc2ccco2)cc1`, the Potency is reported as “inactive”.
For `CCN(CCCNC(=O)c1cc2c(Cl)nc3ccccc3c2s1)Cc1ccccc1`, the Potency was “inactive”.
For `Cc1ccc(CSc2n[nH]c(N)n2)cc1`, the Potency was “inactive”.
In the case of `COc1ccccc1C(=O)Nc1ccc(OCc2cc(=O)n3ccsc3n2)cc1`, the Potency is reported as “inactive”.
In the case of `COc1ccc2c(c1OC)OCC2C` (stereo not drawn), the Potency is reported as inconclusive: 7.94 µM [inhibitor, partial curve].
With `COc1ccc(-n2nnnc2SCC(=O)c2cc3ccccc3o2)cc1` the Potency was inconclusive: 0.891 µM [inhibitor, full curve, poor fit].
With `CCC1C=C(c2ccccc2)C=CN=C1N(CC)CC` (stereo not drawn) the Potency was inconclusive: 0.0065 µM [inhibitor, full curve, poor fit].
For `CCOc1ccc(CN2CCNC(=O)C2CC(=O)NCCC2=CCCCC2)cc1` (stereo not drawn), the Potency was inconclusive: 8.91 µM [inhibitor, partial curve, poor fit].
With `CCn1c(SCC(=O)Nc2cccc(C)c2)nc2nc3c(cc2c1=O)COC(C)(C)C3` the Potency was inconclusive: 0.282 µM [inhibitor, full curve, poor fit].
For `CCN(CC)S(=O)(=O)c1cc(C)ccc1NC(=S)Nc1cccnc1`, the Potency was inconclusive: 25.1 µM [inhibitor, single point].
For `COc1ccc(C(=O)Nn2c(SCC(=O)c3ccccc3)nc3ccccc3c2=O)cc1`, the Potency was inconclusive: 29.1 µM [inhibitor, single point].
With `Cc1nc2ncnn2c(N2CCC(C(=O)NC3CCCC3)CC2)c1Cc1ccccc1` the Potency was inconclusive: 2.06 µM [inhibitor, full curve, poor fit].
For `CSc1ncc(C(=O)N2CCN(c3cc(Cl)ccc3C)CC2)c(C)n1`, the Potency was inconclusive: 11.2 µM [activator, partial curve, poor fit].
In the case of `COCCNC(=O)CSc1ccccc1C(=O)NC1CCSc2ccccc21` (stereo not drawn), the Potency is reported as inconclusive: 0.562 µM [inhibitor, full curve, poor fit].
For `Cc1ccccc1CN(c1ccc(C(=O)NCC2CCCO2)cc1)S(C)(=O)=O` (stereo not drawn), the Potency was inconclusive: 5.62 µM [inhibitor, full curve, poor fit].
With `CCCN(CCC)CCCNC(=O)c1cn(C)c2ccc(S(=O)(=O)N(C)C3CCCCC3)cc2c1=O` the Potency was inconclusive: 35.5 µM [inhibitor, single point].
With `COc1cccc2cc(-c3nnc(Nc4c(F)cccc4F)s3)c(=O)oc12` the Potency was “inactive”.
For `COc1ccc(S(=O)(=O)N2CCOCC2)cc1NC(=O)CCCOc1ccc(Cl)cc1C`, the Potency was inconclusive: 2.51 µM [inhibitor, partial curve, poor fit].
For `Cc1ccc(Cl)cc1-n1ncc2c(N3CCCCCC3)ncnc21`, the Potency was inconclusive: 22.4 µM [inhibitor, single point].
In the case of `O=C(NCCCc1ccccc1)C1CCC(CNc2c(N3CCCCC3)c(=O)c2=O)CC1` (stereo not drawn), the Potency is reported as inconclusive: 6.31 µM [activator, single point].
In the case of `COc1ccc(OC)c(/C=C/C(=O)Nc2ccc(C(=O)OCCC(C)C)cc2)c1`, the Potency is reported as inconclusive: 7.94 µM [inhibitor, partial curve].
In the case of `CCc1cnc2c(c1SCC(=O)c1ccc(OC)cc1)c(=O)n(C)c(=O)n2C`, the Potency is reported as inconclusive: 5.62 µM [inhibitor, partial curve].
For `COc1ccc(CCNC(=O)CNC(=O)c2nn(-c3ccc(OC)c(OC)c3)c(=O)c3ccccc23)cc1OC`, the Potency was inconclusive: 10 µM [inhibitor, partial curve, poor fit].
With `CCN(CC)C(=O)CSc1nc2ccc(NC(=O)CSc3nnc(COc4ccccc4C)n3C)cc2s1` the Potency was inconclusive: 10 µM [inhibitor, partial curve, poor fit].
In the case of `CCc1ccc(S(=O)(=O)/N=C2\C=C(Nc3cccc(C(=O)O)c3)C(=O)c3ccccc32)cc1`, the Potency is reported as inconclusive: 3.16 µM [inhibitor, full curve, poor fit].
For `O=C(NCCc1c[nH]c2ccccc12)C1CCN(S(=O)(=O)c2ccccc2F)CC1`, the Potency was inconclusive: 7.94 µM [inhibitor, partial curve, poor fit].
For `CC(NC(=O)CCCC1CCCCC1)c1ccc(S(N)(=O)=O)cc1` (stereo not drawn), the Potency was inconclusive: 5.01 µM [inhibitor, partial curve, poor fit].
In the case of `CCn1nc(C)cc1C(=O)OCC(=O)c1ccc(Cl)cc1`, the Potency is reported as “inactive”.
With `CC(=O)Nc1ccc2c(c1)OCO2` the Potency was “inactive”.
In the case of `COc1nc(-c2ccccc2)ccc1-c1noc(-c2ccco2)n1`, the Potency is reported as “inactive”.
For `COc1ccc(/C=C2\SC(=S)N(CC(=O)N3CCN(C)CC3)C2=O)cc1`, the Potency was inconclusive: 0.794 µM [inhibitor, single point].
With `COC(=O)c1ccc(Oc2ccc(C(C)(C)C)cc2)c([N+](=O)[O-])c1` the Potency was “inactive”.
